Laboratory results reported in PMC10023571, “EGOC inhibits TOROID polymerization by structurally activating TORC1” (Nature Structural & Molecular Biology, 2023).
No constants are given. Whether binding was seen depends on the method and setting. Some entries that bind do so weakly or less than the wild type. Where a sequence is shown, tags or fusion partners need not be part of it.

Target: T1, Ego1(∆1-111:His6) (S. cerevisiae) (UniProt Q02205)
T1 sequence: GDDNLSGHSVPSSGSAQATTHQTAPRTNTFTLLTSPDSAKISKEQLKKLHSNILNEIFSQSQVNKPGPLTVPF
Test: SEC; EGOC components co-expressed in E. coli, Ni-NTA by the His6 on Ego1, then Superdex GF200 Increase in 50 mM MES-NaOH pH 6.0, 300 mM NaCl, 0.15% CHAPS, 1 mM MgCl2, 0.5 mM DTT; fractions on Coomassie-stained SDS-PAGE; both purified

B1: Ego2(∆1-21) (domain or fragment, UniProt Q3E830 22-75)
chain: IESTGVGSQRIEDIGDLSKVTLDAEGFAQVQGDSLLVHLYKRNDITLAVYTSAQ
  binding: binds

B2: Gtr1^WT (protein, UniProt Q00582 1-310)
chain: MSSNNRKKLLLMGRSGSGKSSMRSIIFSNYSAFDTRRLGATIDVEHSHLRFLGNMTLNLWDCGGQDVFMENYFTKQKDHIFQMVQVLIHVFDVESTEVLKDIEIFAKALKQLRKYSPDAKIFVLLHKMDLVQLDKREELFQIMMKNLSETSSEFGFPNLIGFPTSIWDESLYKAWSQIVCSLIPNMSNHQSNLKKFKEIMNALEIILFERTTFLVICSSNGENSNENHDSSDNNNVLLDPKRFEKISNIMKNFKQSCTKLKSGFKTLILNNNIYVSELSSNMVCFIVLKDMNIPQELVLENIKKAKEFFQ
  binding: binds

B3: Gtr2^WT (protein, UniProt P53290 1-341)
chain: MSLEATDSKAMVLLMGVRRCGKSSICKVVFHNMQPLDTLYLESTSNPSLEHFSTLIDLAVMELPGQLNYFEPSYDSERLFKSVGALVYVIDSQDEYINAITNLAMIIEYAYKVNPSINIEVLIHKVDGLSEDFKVDAQRDIMQRTGEELLELGLDGVQVSFYLTSIFDHSIYEAFSRIVQKLIPELSFLENMLDNLIQHSKIEKAFLFDVNSKIYVSTDSNPVDIQMYEVCSEFIDVTIDLFDLYKAPVLRNSQKSSDKDNVINPRNELQNVSQLANGVIIYLRQMIRGLALVAIIRPNGTDMESCLTVADYNIDIFKKGLEDIWANARASQAKNSIEDDV
  binding: binds
